PubChem BioAssay AID504808, Drosophila RNAi Screening Center – 2011
The deposit covers about 21,000 reagents; below is a random part of those with a known target gene and a result. In the full data, 18 (0.084%) were called active. 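Raw counts without plate normalisation, one of two replicates; the ratio scores behind the calls were not deposited.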 Reagents against one gene are numbered here. The record does not give: the amount of reagent, the time to read-out.

- Assay: 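Genes whose loss lifts activity of an E2F-responsive reporter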 (primary screen)
- Cell system: Drosophila S2 cells
- Reagents: long dsRNA against Drosophila genes
- Detection: 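Firefly luciferase driven by E2F sites, normalised to Renilla luciferase on the same minimal promoter, measured by plate reader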
- Direction: E2F firefly: higher = more E2F reporter activity; Renilla normaliser: higher = more normaliser reporter signal
- Active means: 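Called active if the normalised E2F reporter went up by over 50%; the cutoff is arbitrary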

What did the screen give for APP-BP1 (GeneID 39244)?
E2F firefly, rep 1: 1.17e5; Renilla normaliser, rep 1: 6545; outcome: inactive

What is on record for hoe2 (GeneID 33700)?
E2F firefly, rep 1: 1.48e5; Renilla normaliser, rep 1: 4744; outcome: inactive

For CG10514 (GeneID 43052), what does the deposit list?
E2F firefly, rep 1: 1.03e5; Renilla normaliser, rep 1: 5341; outcome: inactive

For Dg (GeneID 36773), how do the results read?
E2F firefly, rep 1: 1.51e5; Renilla normaliser, rep 1: 5785; outcome: inactive

With Cda9 (GeneID 36934), what does the deposit list?
E2F firefly, rep 1: 1.43e5; Renilla normaliser, rep 1: 4673; outcome: inactive

For CG9162 (retired record) (GeneID 33860), what was measured?
E2F firefly, rep 1: 78435; Renilla normaliser, rep 1: 3537; outcome: inactive

What is on record for Dcp-1 (GeneID 37729)?
E2F firefly, rep 1: 78429; Renilla normaliser, rep 1: 3058; outcome: inactive

With dup (GeneID 47121), what was measured?
E2F firefly, rep 1: 2.12e5; Renilla normaliser, rep 1: 4545; outcome: active

For TM4SF (GeneID 37786), what does the deposit list?
E2F firefly, rep 1: 86762; Renilla normaliser, rep 1: 3515; outcome: inactive

For tst (GeneID 42813), how do the results read?
E2F firefly, rep 1: 70803; Renilla normaliser, rep 1: 3669; outcome: inactive

What did the screen give for CG6937 (GeneID 42662)?
E2F firefly, rep 1: 74782; Renilla normaliser, rep 1: 5480; outcome: inactive

Which result is listed for CG15715 (GeneID 39726)?
E2F firefly, rep 1: 1.56e5; Renilla normaliser, rep 1: 6452; outcome: inactive

For TotM (GeneID 33764), what does the deposit list?
E2F firefly, rep 1: 1.56e5; Renilla normaliser, rep 1: 5674; outcome: inactive

What did the screen give for SkpA (GeneID 31016)?
E2F firefly, rep 1: 1524; Renilla normaliser, rep 1: 968; outcome: inactive

What did the screen give for Naxd (GeneID 40085)?
E2F firefly, rep 1: 77723; Renilla normaliser, rep 1: 3746; outcome: inactive

For CG16749 (GeneID 41111), how do the results read?
E2F firefly, rep 1: 1.27e5; Renilla normaliser, rep 1: 5729; outcome: inactive

For CG12716 (GeneID 32248), how do the results read?
E2F firefly, rep 1: 65865; Renilla normaliser, rep 1: 4332; outcome: inactive

Which result is listed for l(2)05287 (GeneID 35374) #1?
E2F firefly, rep 1: 81729; Renilla normaliser, rep 1: 3286; outcome: inactive

With l(2)05287 (GeneID 35374) #2, what does the deposit list?
E2F firefly, rep 1: 99716; Renilla normaliser, rep 1: 5057; outcome: inactive

Only “E2F firefly, rep 1” (2 entries from above):
hoe2 (GeneID 33700) = 1.48e5
CG10514 (GeneID 43052) = 1.03e5
